{
  "source": "paper PMC12040169",
  "about": "(PLOS Biology, 2025)",
  "note": "Some of the results follow.",
  "data": [
    {"test_system": "T1, CTL2-GFP (C. trachomatis L2/434/Bu, GFP-expressing)", "T1 construct": "L2/434/Bu, GFP-expressing", "parameters": "species or system HeLa; Intracellular C. trachomatis growth in HeLa cells, bulk GFP fluorescence relative to DMSO", "conditions": "bulk GFP, single well; 28.5 h, 10 µM; inhibitor", "units": {"% of control remaining": "%"}, "values": [
      {"smiles": "O=C1c2ccccc2C(=O)N1CSc1nnc2c3ccccc3n(CCc3ccccc3)c2n1", "note": "[CBK263891]", "% of control remaining": 96.784},
      {"smiles": "COc1ccc(-n2nnnc2SCc2ccc(Cl)cc2)cc1", "note": "[CBK101068]", "% of control remaining": 102.192},
      {"smiles": "O=[N+]([O-])c1ccccc1S(=O)(=O)NCCSCc1c(F)cccc1Cl", "note": "[CBK265259]", "% of control remaining": 100},
      {"smiles": "CCOC(=O)c1c2c([nH]c(=S)c1C#N)CCCC2", "note": "[CBK020049]", "% of control remaining": 168.945},
      {"smiles": "Cn1nccc1C(=O)C1CCN(C(=O)c2ccccc2F)CC1", "note": "[CBK284425]", "% of control remaining": 116.568},
      {"smiles": "COC(=O)c1c(NC(=O)CCCC(=O)O)sc2c1CCCCC2", "note": "[CBK265393]", "% of control remaining": 126.39},
      {"smiles": "CC(C)NC(=O)N1CCN(Cc2nc(-c3ccoc3)no2)CC1", "note": "[CBK306248]", "% of control remaining": 148.873},
      {"smiles": "O=[N+]([O-])c1ccc2c(c1)C=C1CCCCC1(NCc1ccccc1)O2", "note": "(stereo not drawn) [CBK262716]", "% of control remaining": 96.073},
      {"smiles": "CC(C)(CN)CN(Cc1ccccc1C(F)(F)F)C(=O)Nc1ccc(Cl)cc1Cl", "note": "[CBK026832C]", "% of control remaining": 148.886},
      {"smiles": "O=c1n(Cc2cccnc2)c2cccnc2n1Cc1cccs1", "note": "[CBK283903]", "% of control remaining": 140.469},
      {"smiles": "CC(C)[C@H](NC(=O)Cc1n[nH]c(=O)c2ccccc12)C(=O)O", "note": "[CBK286607]", "% of control remaining": 139.056},
      {"smiles": "O=C(N/N=C\\c1cccc2ccccc12)c1ccc(CO)nc1", "note": "[CBK261377]", "% of control remaining": 109.731},
      {"smiles": "Cc1cccnc1C(NC(=O)C1CCN(Cc2ccoc2)CC1)c1ccc(Cl)cc1", "note": "(stereo not drawn) [CBK148227]", "% of control remaining": 117.17},
      {"smiles": "O=C(Nc1cc(Cl)cc(Cl)c1)c1csnn1", "note": "[CBK057759]", "% of control remaining": 128.962},
      {"smiles": "CCN1CCCC1CN(Cc1ccccn1)Cc1ccco1", "note": "(stereo not drawn) [CBK283161]", "% of control remaining": 111.351},
      {"smiles": "Cc1cc(F)ccc1S(=O)(=O)NCC1CC(=O)Nc2ccccc21", "note": "(stereo not drawn) [CBK305210]", "% of control remaining": 121.44},
      {"smiles": "Cc1c(CNCCN2CCCC2=O)c2ccccc2n1C", "note": "[CBK281519]", "% of control remaining": 133.253},
      {"smiles": "O=C(COc1ccccc1[N+](=O)[O-])Nc1nc2c(s1)CCC2", "note": "[CBK296663]", "% of control remaining": 147.397},
      {"smiles": "COc1ccc(CN2CC=CC2C(=O)O)cc1Cn1cncn1", "note": "(stereo not drawn) [CBK307524]", "% of control remaining": 157.714},
      {"smiles": "COc1ccccc1OCCSc1nnnn1C1CCCCC1", "note": "[CBK141884]", "% of control remaining": 80.6616},
      {"smiles": "CC(Cc1nc(-c2nccn2C(C)C)cs1)n1cc(Cl)cn1", "note": "(stereo not drawn) [CBK304251]", "% of control remaining": 42.6216},
      {"smiles": "Cc1cc2ccccc2c(=O)n1CCO", "note": "[CBK015621]", "% of control remaining": 135.856},
      {"smiles": "O=C(COc1ccc(CCO)cc1)Nc1ccccc1-c1ccccc1", "note": "[CBK269666]", "% of control remaining": 127.641},
      {"smiles": "CC(Cc1nc(-c2cnnn2C)cs1)n1cc(Cl)cn1", "note": "(stereo not drawn) [CBK304245]", "% of control remaining": 95.3509},
      {"smiles": "FC(F)(F)c1ccc(-c2nnc(C3CC3)o2)cc1", "note": "[CBK021992]", "% of control remaining": 126.013},
      {"smiles": "Cc1ccsc1CCNC(=O)C1(Oc2cccnc2C)CCNCC1", "note": "[CBK307374]", "% of control remaining": 139.585},
      {"smiles": "Cc1cc(C)n(CC2CCCCN2CC(=O)NC(C)c2ccco2)n1", "note": "(stereo not drawn) [CBK305331]", "% of control remaining": 125.263},
      {"smiles": "O=C(O)CCSc1nnnn1-c1ccccc1", "note": "[CBK287217]", "% of control remaining": 146.293},
      {"smiles": "COc1ccc2cc(C(=O)N(CCO)Cc3ccc(C)s3)n(C)c2c1", "note": "[CBK306831]", "% of control remaining": 92.3871},
      {"smiles": "Cc1ccc(C(=O)C2=C(O)C(=O)N(CCN(C)C)C2c2ccccn2)o1", "note": "(stereo not drawn) [CBK266536]", "% of control remaining": 130.032},
      {"smiles": "O=C(/C=C/c1cn(C2CC(O)C(CO)O2)c(=O)[nH]c1=O)NCCNC(=O)C(F)(F)F", "note": "(stereo not drawn) [CBK201214]", "% of control remaining": 149.098},
      {"smiles": "Cc1cc(C)c2c(CC(=O)NCCCN3CCOCC3)coc2c1", "note": "[CBK268307]", "% of control remaining": 124.31},
      {"smiles": "Cc1nc(CC(=O)O)c(-c2ccccc2)s1", "note": "[CBK264988]", "% of control remaining": 113.221},
      {"smiles": "CCN(CC)CCCOC(=O)C(CCSC)c1ccccc1C", "note": "(stereo not drawn) [CBK023177C]", "% of control remaining": 164.835},
      {"smiles": "COC(=O)c1cc(-c2ccccc2OCc2ccccc2)ccc1NC(=O)c1ccc(Cl)cc1Cl", "note": "[CBK000415]", "% of control remaining": 135.371},
      {"smiles": "O=C(NCc1cccs1)c1cc(S(=O)(=O)N2CCOCC2)c(Cl)cc1Cl", "note": "[CBK269657]", "% of control remaining": 123.923},
      {"smiles": "COc1ccc(CCNC(=O)c2ncoc2-c2cccs2)cc1", "note": "[CBK283663]", "% of control remaining": 94.2949},
      {"smiles": "CS(=O)(=O)N(CC(=O)N/N=C/c1ccncc1)c1ccccc1Br", "note": "[CBK263911]", "% of control remaining": 114.959},
      {"smiles": "CNCCOc1ncccc1OCc1ccccc1", "note": "[CBK036306]", "% of control remaining": 112.114},
      {"smiles": "CCc1nc(C2CCCN2c2ncc(C#N)cc2Cl)no1", "note": "(stereo not drawn) [CBK305183]", "% of control remaining": 128.485},
      {"smiles": "COc1ccccc1NC(=N)Nc1nc(CSc2nc3ccccc3s2)cc(=O)[nH]1", "note": "[CBK269046]", "% of control remaining": 144.84},
      {"smiles": "O=C(NCCc1nc2ccccc2[nH]1)c1cccs1", "note": "[CBK020529]", "% of control remaining": 138.516}
    ]}
  ]
}
